In patent US20230235080A1, “TROPHOBLAST CELL-SURFACE ANTIGEN-2 (TROP-2) ANTIBODIES” (Bionecure Therapeutics, Inc., priority 2020, published 2023):
Results are given in words; binding and its absence hold for the method and conditions named. Some results given as binding are weak or reduced against the parent protein; the word gives no strength.

Tests used:
[1] = target: cynomolgus Trop-2-His (cynomolgus); assay: ELISA, plate coated with 1 ug/mL antigen, HRP goat-anti-human IgG, OD450
[2] = target: cynomolgus Trop-2-His (cynomolgus); assay: ELISA on coated antigen, one antibody dilution (concentration not given); on the sheet OD405, detected by GAM/H-AP
[3] = target: cynomolgus Trop-2-His (cynomolgus); assay: cross-reactivity ELISA on coated antigens
[4] = target: cynomolgus Trop-2-His (cynomolgus); assay: ELISA on coated antigen, one antibody dilution (concentration not given), detected by GAH-HRP; y axis without a label (OD450 by the text)
[5] = target: cynomolgus Trop-2-His (cynomolgus); assay: ELISA on coated antigen, one antibody dilution (concentration not given), detected by GAH-HRP, OD450nm

| Binder | binding [1] | binding [2] | binding [3] | binding [4] | binding [5] |
| --- | --- | --- | --- | --- | --- |
| humanized IgG #118-2-5 HuA/LuX (antibody, V domains shown, Full-length IgG expressed in HEK293-6E cells; also called 1 (HuA/LuX); IgG HuA/LuX) VH: QVQLQESGPGLVKPSETLSLTCTVSGFSLTSYGVNWIRQPPGKGLEWIGVMWAGGSTNYNSALMSRVTISVDTSKNQFSLKLSSVTAADTAVYYCARDENWDGAWFAYWGQGTLVTVSS VL: DIVMTQSPDSLAVSLGERATINCKSSQSLLNSGTRKNYLAWYQQKPGQPPKLLIYWASSRESGVPDRFSGSGSGTDFTLTISSLQAEDVAVYYCKQSYNLFTFGGGTKVEIK | – | – | binds | binds | – |
| humanized IgG #118-2-5 HuC/LuX (antibody, V domains shown, Full-length IgG expressed in HEK293-6E cells; also called 3 (HuC/LuX)) VH: QVQLQESGPGLVKPSETLSLTCTVSGFSLTSYGVNWIRQPPGKGLEWIGVMWAGGSTNYNSALMSRLSISKDNSKSQVFLKMNSLQTDDTGMYYCARDENWDGAWFAYWGQGTLVTVSS VL: DIVMTQSPDSLAVSLGERATINCKSSQSLLNSGTRKNYLAWYQQKPGQPPKLLIYWASSRESGVPDRFSGSGSGTDFTLTISSLQAEDVAVYYCKQSYNLFTFGGGTKVEIK | – | – | binds | binds | – |
| humanized IgG #118-2-5 HuB/LuY (antibody, V domains shown, Full-length IgG expressed in HEK293-6E cells; also called 6 (HuB/LuY)) VH: QVQLKQSGPGLVAPSQSLSITCTVSGFSLTSYGVNWIRQPPGKGLEWIGVMWAGGSTNYNSALMSRVTISVDTSKNQFSLKLSSVTAADTAVYYCARDENWDGAWFAYWGQGTLVTVSS VL: DIVMTQSPSSLAVSLGERATMSCKSSQSLLNSGTRKNYLAWYQQKPGQPPKLLISWASSRESGVPDRFSGSGSGTDFTLTISSVQAEDLAVYYCKQSYNLFTFGGGTKVEIK | – | – | binds | binds | – |
| humanized IgG #118-2-5 HuB/LuX (antibody, V domains shown, Full-length IgG expressed in HEK293-6E cells; also called 2 (HuB/LuX)) VH: QVQLKQSGPGLVAPSQSLSITCTVSGFSLTSYGVNWIRQPPGKGLEWIGVMWAGGSTNYNSALMSRVTISVDTSKNQFSLKLSSVTAADTAVYYCARDENWDGAWFAYWGQGTLVTVSS VL: DIVMTQSPDSLAVSLGERATINCKSSQSLLNSGTRKNYLAWYQQKPGQPPKLLIYWASSRESGVPDRFSGSGSGTDFTLTISSLQAEDVAVYYCKQSYNLFTFGGGTKVEIK | – | – | binds | binds | – |
| humanized IgG #118-2-5 HuA/LuY (antibody, V domains shown, Full-length IgG expressed in HEK293-6E cells) VH: QVQLQESGPGLVKPSETLSLTCTVSGFSLTSYGVNWIRQPPGKGLEWIGVMWAGGSTNYNSALMSRVTISVDTSKNQFSLKLSSVTAADTAVYYCARDENWDGAWFAYWGQGTLVTVSS VL: DIVMTQSPSSLAVSLGERATMSCKSSQSLLNSGTRKNYLAWYQQKPGQPPKLLISWASSRESGVPDRFSGSGSGTDFTLTISSVQAEDLAVYYCKQSYNLFTFGGGTKVEIK | – | – | binds | binds | – |
| #118-2-5 mouse H4-2/L3-3 (antibody, V domains shown, The label H4-2/L3-3 is not explained) VH: QVQLKQSGPGLVAPSQSLSITCTVSGFSLTSYGVNWIRQPPGKGLEWLGVMWAGGSTNYNSALMSRLSISKDNSKSQVFLKMNSLQTDDTGMYYCARDENWDGAWFAYWGQGTLVTVS VL: DIQMTQSPSSLAVSAGEKVTMSCKSSQSLLNSGTRKNYLAWYQQKPGQSPKLLISWASSRESGVPDRFTGSGSGTDFTLTISSVQAEDLAVYYCKQSYNLFTFGGGTKLELK | – | – | – | binds | – |

The remaining lines, values ahead:

| binding [1] | binding [2] | binding [3] | binding [4] | binding [5] | Binder |
| --- | --- | --- | --- | --- | --- |
| binds | binds | – | – | – | murine-human chimeric IgG1 #118-2-5 (antibody, V domains shown, Chimeric IgG1 expressed in HEK293-6E cells) VH: QVQLKQSGPGLVAPSQSLSITCTVSGFSLTSYGVNWIRQPPGKGLEWLGVMWAGGSTNYNSALMSRLSISKDNSKSQVFLKMNSLQTDDTGMYYCARDENWDGAWFAYWGQGTLVTVSA VL: DIQMTQSPSSLAVSAGEKVTMSCKSSQSLLNSGTRKNYLAWYQQKPGQSPKLLISWASSRESGVPDRFTGSGSGTDFTLTISSVQAEDLAVYYCKQSYNLFTFGGGTKLELKR |
| binds | – | – | – | binds | humanized IgG A1,2X4 (antibody, V domains shown, Full-length IgG expressed in 293 cells; also called IgG HuA(1,2)/Lu(X4)) VH: QVQLQESGPGLVKPSETLSLTCTVSGFSLTSYGVNWIRQPPGKGLEWIGVMWAGGSTNYNSALMSRLTISKDTSKNQFSLKLSSVTAADTAVYYCARDENWDGAWFAYWGQGTLVTVSS VL: DIVMTQSPDSLAVSLGERATINCKSSQSLLNSGTRKNYLAWYQQKPGQPPKLLISWASSRESGVPDRFSGSGSGTDFTLTISSLQAEDVAVYYCKQSYNLFTFGGGTKVEIKR |
| – | – | binds | binds | – | humanized IgG #118-2-5 HuC/LuY (antibody, V domains shown, Full-length IgG expressed in HEK293-6E cells; also called 7 (HuC/LuY)) VH: QVQLQESGPGLVKPSETLSLTCTVSGFSLTSYGVNWIRQPPGKGLEWIGVMWAGGSTNYNSALMSRLSISKDNSKSQVFLKMNSLQTDDTGMYYCARDENWDGAWFAYWGQGTLVTVSS VL: DIVMTQSPSSLAVSLGERATMSCKSSQSLLNSGTRKNYLAWYQQKPGQPPKLLISWASSRESGVPDRFSGSGSGTDFTLTISSVQAEDLAVYYCKQSYNLFTFGGGTKVEIK |
| – | – | binds | binds | – | humanized IgG #118-2-5 HuD/LuX (antibody, V domains shown, Full-length IgG expressed in HEK293-6E cells; also called 4 (HuD/LuX)) VH: QVQLKESGPGLVAPSETLSITCTVSGFSLTSYGVNWIRQPPGKGLEWLGVMWAGGSTNYNSALMSRLTISKDTSKNQVSLKLSSVQAADTAMYYCARDENWDGAWFAYWGQGTLVTVSS VL: DIVMTQSPDSLAVSLGERATINCKSSQSLLNSGTRKNYLAWYQQKPGQPPKLLIYWASSRESGVPDRFSGSGSGTDFTLTISSLQAEDVAVYYCKQSYNLFTFGGGTKVEIK |
| – | – | binds | binds | binds | humanized IgG #118-2-5 HuD/LuY (antibody, V domains shown, Full-length IgG expressed in HEK293-6E cells; also called 8 (HuD/LuY)) VH: QVQLKESGPGLVAPSETLSITCTVSGFSLTSYGVNWIRQPPGKGLEWLGVMWAGGSTNYNSALMSRLTISKDTSKNQVSLKLSSVQAADTAMYYCARDENWDGAWFAYWGQGTLVTVSS VL: DIVMTQSPSSLAVSLGERATMSCKSSQSLLNSGTRKNYLAWYQQKPGQPPKLLISWASSRESGVPDRFSGSGSGTDFTLTISSVQAEDLAVYYCKQSYNLFTFGGGTKVEIK |
